# PubChem BioAssay AID330 (DTP/NCI, 2004)
# The list does not hold the whole screen: it gathers tests that were run many times, whatever their T/C, doses with no T/C, and many T/C values between a quarter and a half above the control. Other doses and runs of a compound stand elsewhere. T/C is the treated group as % of the vehicle group. Some entries give survivors of the animals treated and no T/C: the source files T/C as zero there, which appears to mark a toxic dose or a test without result, not a measured value. Some survivor counts are full or nearly so, which does not show that the dose was tolerated: survival well below the control is almost never listed, so the zero probably covers shortened survival too. Survivors were counted at the toxicity check, usually on the fifth day, unless a day is given; later deaths do not show. Schedule codes are those of the source, read here as Q, the interval in days (D) or hours (H), X, the number of doses. Some doses were run more than once; their values stand side by side, smallest first. Counts like (3×) stand for listed records that agree. Where survival is the endpoint, the PubChem record calls one and a half times the control and up active, and a quarter to a half above the control has no call in these data; cut-offs in other NCI protocols can differ. Some T/C values are followed by the survivors on the day toxicity was checked, most often the fifth; without a count, all were alive then.
# Test system: P388 leukemia ip, CD2F1 mice, survival T/C
# Experiment: NCI In Vivo Anticancer Drug Screen. Data for tumor model P388 Leukemia (intraperitoneal) in CD2F1 (CDF1) mice
# Details: T/C endpoint: median survival time, higher T/C = longer survival
# [1] = dose: 0.5 mg/kg/injection, schedule: Q01DX009 (ip), vehicle: water
# [2] = dose: 1.0 mg/kg/injection, schedule: Q01DX009 (ip), vehicle: water
smiles,measurement,setting,value
CC[C@]1(O)C[C@H]2CN(CCc3c([nH]c4ccccc34)[C@@](C(=O)OC)(c3cc4c(cc3OC)N(C=O)[C@H]3[C@@](O)(C(=O)OC)[C@H](OC(C)=O)[C@]5(CC)C=CCN6CC[C@]43[C@@H]65)C2)C1,T/C,"dose: 0.5 mg/kg/injection, schedule: Q01DX009 (ip), vehicle: saline, evaluated on day 5",74 % of control
same,T/C,"dose: 0.5 mg/kg/injection, schedule: Q01DX009 (ip), vehicle: saline, evaluated on day 10",116 % of control [6 of 8 alive]
same,T/C,"dose: 0.5 mg/kg/injection, schedule: Q01DX009 (ip), vehicle: saline, evaluated on day 30",100 % of control
same,survivor count,"dose: 0.5 mg/kg/injection, schedule: Q01DX009 (ip), vehicle: saline",10 of 10 and 6 of 6
same,T/C,[1],"105, 127, 189, 201 % of control"
same,survivor count,[1],5 of 6 and 6 of 6 (2×)
same,T/C,"dose: 0.5 mg/kg/injection, schedule: Q04DX003 (ip), vehicle: saline, evaluated on day 5","172, 180, 215 % of control"
same,T/C,"dose: 0.5 mg/kg/injection, schedule: Q04DX003 (ip), vehicle: saline, evaluated on day 9","122, 127, 133 (2×), 155 % of control"
same,T/C,"dose: 0.5 mg/kg/injection, schedule: Q04DX003 (ip), vehicle: saline, evaluated on day 30",105 and 184 % of control
same,T/C,"dose: 0.5 mg/kg/injection, schedule: Q04DX003 (ip), vehicle: saline, evaluated on day 35",183 % of control
same,T/C,"dose: 0.5 mg/kg/injection, schedule: Q04DX003 (ip), vehicle: saline, evaluated on day 45","177, 180, 200 % of control"
same,T/C,"dose: 0.5 mg/kg/injection, schedule: Q04DX003 (ip), vehicle: saline, evaluated on day 60","173, 181, 189 % of control"
same,T/C,"dose: 0.5 mg/kg/injection, schedule: Q04DX003 (iv), vehicle: saline",126 % of control
same,T/C,"dose: 0.53 mg/kg/injection, schedule: Q04DX003 (iv), vehicle: saline",133 and 134 % of control
same,T/C,"dose: 0.67 mg/kg/injection, schedule: Q04DX003 (ip), vehicle: saline, evaluated on day 5",160 and 174 % of control
same,T/C,"dose: 0.67 mg/kg/injection, schedule: Q04DX003 (ip), vehicle: saline, evaluated on day 9",150 and 153 % of control
same,T/C,"dose: 0.67 mg/kg/injection, schedule: Q04DX003 (ip), vehicle: saline, evaluated on day 60","178, 179, 193, 206 % of control [9 of 10 alive]"
same,T/C,"dose: 0.72 mg/kg/injection, schedule: Q04DX003 (ip), vehicle: saline","171, 173, 182, 184 % of control"
same,T/C,"dose: 0.75 mg/kg/injection, schedule: Q04DX002 (ip), vehicle: saline",144 % of control
same,survivor count,"dose: 0.8 mg/kg/injection, schedule: Q01DX009 (ip), vehicle: saline",3 of 6 and 5 of 6
same,T/C,"dose: 0.8 mg/kg/injection, schedule: Q04DX003 (ip), vehicle: water",135 % of control
same,T/C,"dose: 0.86 mg/kg/injection, schedule: Q04DX003 (ip), vehicle: saline","132, 150, 153, 155, 162, 175, 182, 220 % of control"
same,T/C,"dose: 1.0 mg/kg/injection, schedule: Q01DX001 (ip), vehicle: Klucel (hydroxypropylcellulose) (HPC)",126 and 139 % of control
same,T/C,"dose: 1.0 mg/kg/injection, schedule: Q01DX001 (ip), vehicle: saline with Tween-80",132 % of control
same,T/C,"dose: 1.0 mg/kg/injection, schedule: Q01DX001 (ip), vehicle: saline, evaluated on day 5","114, 130, 145, 148, 150, 157, 159, 164 % of control"
same,T/C,"dose: 1.0 mg/kg/injection, schedule: Q01DX001 (ip), vehicle: saline, evaluated on day 30","132, 153 (2×), 160, 165, 180 (2×), 187, 187 [5 of 6 alive], 193, 194, 201 % of control"
same,survivor count,"dose: 1.0 mg/kg/injection, schedule: Q01DX001 (ip), vehicle: saline",5 of 6
same,T/C,"dose: 1.0 mg/kg/injection, schedule: Q01DX001 (ip), vehicle: water, evaluated on day 3",155 % of control
same,T/C,"dose: 1.0 mg/kg/injection, schedule: Q01DX001 (ip), vehicle: water, evaluated on day 5","136, 149, 150, 152, 157, 160, 172 % of control"
same,T/C,"dose: 1.0 mg/kg/injection, schedule: Q01DX001 (ip), vehicle: water, evaluated on day 6","138, 144, 147 % of control"
same,T/C,"dose: 1.0 mg/kg/injection, schedule: Q01DX001 (ip), vehicle: water, evaluated on day 10",104 % of control
same,T/C,"dose: 1.0 mg/kg/injection, schedule: Q01DX001 (ip), vehicle: water, evaluated on day 20",150 % of control
same,T/C,"dose: 1.0 mg/kg/injection, schedule: Q01DX001 (ip), vehicle: water, evaluated on day 30","131, 138, 139, 140, 143, 144, 145 (3×), 148 [5 of 6 alive], 149 (2×), 150 (2×), 151, 152 (4×), 153 (2×), 154, 155 (2×), 158, 159, 160, 161 [4 of 6 alive], 164, 165 (2×), 172, 177, 177 % of control [4 of 6 alive]"
same,T/C,"dose: 1.0 mg/kg/injection, schedule: Q01DX001 (ip), vehicle: water, evaluated on day 35",157 % of control
same,survivor count,"dose: 1.0 mg/kg/injection, schedule: Q01DX001 (ip), vehicle: water",3 of 6 (2×)
same,T/C,"dose: 1.0 mg/kg/injection, schedule: Q01DX001 (iv), vehicle: saline",140 % of control
same,survivor count,"dose: 1.0 mg/kg/injection, schedule: Q01DX005 (ip), vehicle: saline",6 of 6
same,T/C,"dose: 1.0 mg/kg/injection, schedule: Q01DX009 (ip), vehicle: saline, evaluated on day 5",77 % of control
same,T/C,"dose: 1.0 mg/kg/injection, schedule: Q01DX009 (ip), vehicle: saline, evaluated on day 30",98 % of control [3 of 6 alive]
same,survivor count,"dose: 1.0 mg/kg/injection, schedule: Q01DX009 (ip), vehicle: saline",4 of 6 and 10 of 10
same,T/C,[2],91 % of control
same,survivor count,[2],"2 of 6, 4 of 6, 5 of 6, 6 of 6"
same,T/C,"dose: 1.0 mg/kg/injection, schedule: Q04DX003 (ip), vehicle: saline, evaluated on day 5","174, 175, 201, 206, 207, 208, 218, 274 % of control"
same,T/C,"dose: 1.0 mg/kg/injection, schedule: Q04DX003 (ip), vehicle: saline, evaluated on day 9","119, 141, 151, 158, 164, 169, 169 % of control [6 of 7 alive]"
same,T/C,"dose: 1.0 mg/kg/injection, schedule: Q04DX003 (ip), vehicle: saline, evaluated on day 20",182 % of control
same,T/C,"dose: 1.0 mg/kg/injection, schedule: Q04DX003 (ip), vehicle: saline, evaluated on day 23",196 % of control
same,T/C,"dose: 1.0 mg/kg/injection, schedule: Q04DX003 (ip), vehicle: saline, evaluated on day 30, list 1 of 2","153, 167, 172 (2×), 175, 178, 179, 181, 186, 188, 189, 190, 192, 198, 199, 200, 201, 203, 205, 208 (2×), 209, 213, 214, 215, 217, 218, 221, 226, 234, 245, 252 % of control"
same,T/C,"dose: 1.0 mg/kg/injection, schedule: Q04DX003 (ip), vehicle: saline, evaluated on day 30, list 2 of 2","95, 125, 163, 169, 172, 173, 178, 179 [5 of 6 alive], 180, 185, 187, 189, 190, 192, 193, 198, 199, 201, 203, 205, 207, 208, 209, 213, 214, 215, 216, 218, 220, 223, 227, 239, 247 % of control"
same,T/C,"dose: 1.0 mg/kg/injection, schedule: Q04DX003 (ip), vehicle: saline, evaluated on day 35",226 % of control
